About 2,100 (0.66%) of roughly 320,000 compounds were called active. The shares of active, inactive and inconclusive entries below differ from those in the screen. Calls come from the whole dose curve; as a rule, active = well fitted inhibition curve with a large enough effect in the signal ratio, with a control signal flat (not every such curve was filed as active); inconclusive = small, poorly fitted or top-dose-only effect, or effect the other way, or a change in a side signal; inactive = flat fitted curve, though single readings scatter; the % refers to the signal ratio. Potencies of inconclusive entries are doubtful fits and often do not repeat.
assay: qHTS Assay for Lipid Storage Modulators in Drosophila S3 Cells; details: BODIPY lipid droplet fluorescence, 18-24 h, cells fed with added oleic acid; lipid storage change, negative = inhibition: at 46.1 µM (top of the series) unless noted
Method in brief: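 Drosophila S3 cells got compounds at several concentrations plus oleic acid (400 uM solution). Laser-scanning cytometry with 488 nm excitation read lipid droplets at 500-530 nm and cells at 575-640 nm. Percent activity was relative to 20 uM Triacsin C.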
% is set by controls: 0 for no effect and ±100 for the full control effect; potency is the fitted concentration of half-maximal effect.

SMILES | lipid storage change, negative = inhibition | Potency
CCC(=O)NC(c1cc(Cl)c2cccnc2c1O)C1CC1 (stereo unspecified) | inconclusive: 12.1% | 
O=C(O)CCc1nc(-c2ccccc2)no1 | inconclusive: 7.1% | 
CC1=CN2C(=N)/C(=C/c3ccc([N+](=O)[O-])o3)C(=O)N=C2S1 |  | active: 14.6 µM
CC(C)(C)c1cccc(OCCCSc2ncccn2)c1 | inconclusive: -3.42% | 
COc1cccc(NC(=S)N2CCc3cc(OC)c(OC)cc3C2)c1 | inconclusive: -26.5% | 
CCN(CCC(=O)Nc1cc(OC)cc(OC)c1)Cc1ccccc1 | inconclusive: 51.8% | 
c1ccc2c(c1)nc1n2CCS1 | inconclusive: -117% | 
Cc1cc(C)nc(NS(=O)(=O)c2ccc(NS(=O)(=O)c3ccccc3)cc2)n1 |  | inconclusive: 29.1 µM [falling, single point]
Cc1cc2ccccn2c1C(=O)c1ccc([N+](=O)[O-])cc1[N+](=O)[O-] |  | inconclusive: 0.082 µM [falling, partial curve, poor fit]
COc1ccc(C)cc1S(=O)(=O)N1CCN(S(=O)(=O)c2cc(C)ccc2OC)CC1 |  | inconclusive: 7.31 µM [rising, partial curve]
CCc1nc2c(cnn2-c2ccc(F)cc2)c(=O)n1-c1ccc(N2CCC(C)CC2)cc1 | inconclusive: -1.36% | 
C=CCC1(O)C(=O)N2C(=C1C(=O)N1CCOCC1)c1ccccc1CC2(C)C (stereo unspecified) | inconclusive: -2.52% | 
Brc1ccccc1-c1ccccc1 | inconclusive: 0.865% | 
OCc1c(OCc2cccc(F)c2)ccc2ccccc12 | inconclusive: -21.7% | 
CC(C)C[C@@H](CO)N1CCN(Cc2ccc([N+](=O)[O-])cc2)CCC1=O |  | inconclusive: 13 µM [activator, partial curve, poor fit]
C=CCn1c(O)c(N=NC(=O)CNC(=O)c2cccs2)c2ccccc21 | inconclusive: 25.7% | 
Cc1c(C(=O)Nc2ccc3c(c2)OCO3)oc2ccccc12 | inconclusive: 87.8% | 
Cc1ccc(-n2nnnc2SCC(=O)c2c(N)n(C3CC3)c(=O)[nH]c2=O)cc1 |  | inconclusive: 7.31 µM [activator, partial curve]
Cn1nc(CC(=O)NC2CCCCC2)c2ccccc2c1=O | inconclusive: -40.1% | 
CC(C)COCC(O)CCC(=O)NNC(=S)Nc1ccccc1 (stereo unspecified) | inconclusive: 47.1% | 
O=C(O)c1ccc2c(c1)C(=O)N([C@]1(C(=O)O)CC1c1ccccc1)C2=O (stereo partly specified) | inconclusive: 8.12% | 
CCc1nnc(NS(=O)(=O)c2ccc(N/C=C\C(=O)c3ccc4ccccc4c3)cc2)s1 | inconclusive: 16.9% | 
Cn1nc(-c2ccc(Cl)cc2)c2cc(C(=O)NCCN3CCOCC3)sc21 | inconclusive: -9.1% | 
CCNS(=O)(=O)c1ccc(NC(=O)c2cc(C(F)(F)F)nn2C)cc1 | inconclusive: -45.9% | 
Cc1ccc(CN(c2ccc(C(=O)NCC3CCCO3)cc2)S(C)(=O)=O)cc1 (stereo unspecified) |  | inconclusive: 29.1 µM [rising, single point]
COc1ccc(-c2cc(C)no2)cc1S(=O)(=O)NCCCN1CCCCCC1 | inconclusive: 45% | 

SMILES | lipid storage change, negative = inhibition | Potency
COC(=O)C(N)Cc1ccc(O)cc1 (stereo unspecified) | inconclusive: -30.4% | 
O=C(O)C1C2C=CC(C2)C1C(=O)Nc1ccc2c(c1)OCCO2 (stereo unspecified) | inconclusive: -51.5% | 
O=C1C2CCCN2C(c2ccccc2F)N1c1cccc(Cl)c1 (stereo unspecified) | inconclusive: -8.22% | 
C=CCC1NS(=O)(=O)OC(COC)C1C (stereo unspecified) |  | inconclusive: 29.1 µM [activator, single point]
CC(C)CNC(=O)c1cc(-c2ccc3c(c2)OCO3)on1 |  | inconclusive: 16.4 µM [activator, single point]
Cc1cc([N+](=O)[O-])nn1CC(=O)N/N=C/c1ccccc1F | inconclusive: 4.47% | 
O=C(CN1C(=O)NC2(CCCCC2)C1=O)NNC(=O)C1CC1 |  | inconclusive: 0.517 µM [falling, full curve]
CCC(C)CCN1CCN=C1Nc1ccccc1 (stereo unspecified) |  | inconclusive: 29.1 µM [falling, single point]
CC(=O)C(C(C)=O)c1c(Cl)c(O)c(O)c2c(C(=O)c3ccccc3)coc12 |  | inconclusive: 18.4 µM [falling, single point]
CCOc1ccc(C(=O)Nc2ccccc2C(=O)O)cc1 | inconclusive: 0.719% | 
COc1ccc(OC)c2[nH]c(=O)c(CCNC(=O)C(C)(C)C)cc12 | inconclusive: 72.8% | 
COc1ccc(C2Nc3cccc4cccc(c34)N2)cc1 |  | inconclusive: 0.0291 µM [falling, full curve, poor fit]
CCOc1ccc(NC(=S)N2c3ccccc3CC2C)cc1 (stereo unspecified) |  | inconclusive: 29.1 µM [activator, single point]
COc1ccc(F)cc1S(=O)(=O)NC1CCCC1 | inconclusive: 154% | 
C=CCOC(=O)C1=C(C)NC(=O)NC1c1ccc(Cl)cc1 (stereo unspecified) | inconclusive: -5.12% | 
CCCCN(CC)CCNc1c(NC2CCN(C(=O)OCC)CC2)c(=O)c1=O | inconclusive: -6.03% | 
CCC(C(=O)OC)n1cnc2scc(-c3ccc(C)c(C)c3)c2c1=O (stereo unspecified) | inconclusive: -77.7% | 
CC1CCC2(CC1)NC(=O)N(NC(=O)CSc1nnc(NC3CC3)s1)C2=O (stereo unspecified) | inconclusive: -13.5% | 
COc1cc(C(=S)N2CCCC2)cc(Cl)c1OCC(=O)Nc1ccc(C)cc1C | inconclusive: 17.1% | 
CCn1c2ccc(C)cc2c2n[nH]c(=S)nc21 |  | inconclusive: 0.58 µM [activator, single point]
COc1ccccc1-c1nnc(SCCN2CCOCC2)n1-c1ccc(C)cc1 | inconclusive: 10.5% | 
O=C(N/N=C/c1ccncc1)c1cc(-c2ccc(Br)s2)[nH]n1 |  | inconclusive: 6.51 µM [activator, single point]
CCC1CSC(Nc2ccc(C(=O)/C=C/c3ccc(Br)cc3)cc2)=N1 (stereo unspecified) |  | inconclusive: 6.51 µM [falling, single point]
Cc1cc(NC(=O)CCC(=O)N(CC(=O)NC2CCCC2)c2ccc(Cl)cc2)no1 |  | inconclusive: 29.1 µM [activator, single point]
CC(=O)Cc1nsc(NC(=O)c2ccc(-c3cc(C(F)(F)F)ccc3Cl)o2)n1 | inconclusive: 117% | 
O=C(NCCc1ccccc1)C(=O)NCC1OCCN1S(=O)(=O)c1ccc(F)cc1 (stereo unspecified) |  | inconclusive: 2.06 µM [activator, full curve, poor fit]

3 structures out of the list, sorted by molar mass, high to low:
SMILES | lipid storage change, negative = inhibition | Potency
CC(=O)Cc1nsc(NC(=O)c2ccc(-c3cc(C(F)(F)F)ccc3Cl)o2)n1 | inconclusive: 117% | 
Cc1ccc(CN(c2ccc(C(=O)NCC3CCCO3)cc2)S(C)(=O)=O)cc1 (stereo unspecified) |  | inconclusive: 29.1 µM [rising, single point]
Brc1ccccc1-c1ccccc1 | inconclusive: 0.865% | 

(continued)

SMILES | lipid storage change, negative = inhibition | Potency
NC(=O)c1c(NC(=O)COC(=O)CSc2nnc(-c3ccc(Cl)cc3)o2)sc2c1CCC2 | inconclusive: -11.3% | 
Cc1cnc(C(=O)OC(C)C(=O)Nc2ccc(Oc3ccccc3)cc2)cn1 (stereo unspecified) |  | inconclusive: 16.4 µM [falling, partial curve, poor fit]
COc1ccccc1N1CCN(CC(=O)NCCc2ccc(S(N)(=O)=O)cc2)CC1 | inconclusive: 30.1% [at 9.22 µM] | 
O=C(Nc1ncc(Cc2cc(Cl)ccc2Cl)s1)c1ccc([N+](=O)[O-])cc1 |  | inconclusive: 29.1 µM [falling, single point]
CC(C)OC(=O)c1c(NC(=O)C2CC=CCC2C(=O)O)sc2c1CCCCC2 (stereo unspecified) | inconclusive: -0.656% | 
CN(CC(=O)NC1CCCCCC1)S(=O)(=O)c1cnc[nH]1 |  | inconclusive: 4.61 µM [falling, single point]
COc1ccc(N2CCN(C(=O)c3ccc4c(c3)CC(c3ccccc3)OC4=O)CC2)cc1 (stereo unspecified) |  | inconclusive: 29.1 µM [falling, single point]
O=C(CSc1cccc[n+]1[O-])Nc1ccc2c(c1)OCCO2 | inconclusive: 16.6% | 
CC1CCCCC1NC(=O)CN1CCN(S(=O)(=O)c2ccc(Br)s2)CC1 (stereo unspecified) |  | inconclusive: 4.61 µM [falling, single point]
Cc1nc(NCc2ccccc2)sc1C(=O)Nc1ccccc1 | inconclusive: 5% | 
COc1ccc(C(=O)COC(=O)C(C)N2C(=O)C3C4CCC(C4)C3C2=O)cc1 (stereo unspecified) | inconclusive: -18.4% | 
C/C(=N\NC(=O)C1CCCN(S(=O)(=O)c2ccccc2)C1)c1ccccn1 (stereo unspecified) |  | inconclusive: 2.31 µM [rising, partial curve]
Cc1nn(-c2ccccc2)c(C)c1C(=O)OC(C)C(=O)NC1CCCCC1C (stereo unspecified) | inconclusive: 12.5% | 
O=C1CC(C(=O)Nc2cccc(F)c2)n2c(nc3ccccc32)N1 (stereo unspecified) | inconclusive: -8.73% | 
Cc1nn(C(C)C)c(C)c1[C@@H]1C[C@H]2CN(Cc3cccc(Cl)c3)C(=O)[C@]23CCCN13 | inconclusive: -9.27% | 
Cc1ccc(S(=O)(=O)N2CCCC(NC(=O)N3CCN(c4ccccc4)CC3)C2)cc1 (stereo unspecified) |  | inconclusive: 11.6 µM [activator, partial curve]
CCCCCN(C(=O)CCC(=O)OCC(=O)N1CCCCC1)c1c(N)n(CCCC)c(=O)[nH]c1=O | inconclusive: 13.8% | 
Cc1ccc(S(=O)(=O)N2CCCC2)cc1C(=O)NC1CCCCC1 |  | inconclusive: 29.1 µM [falling, single point]
CC(C)c1ccc(C(=O)NCCCc2ccccc2)cc1 |  | inconclusive: 6.51 µM [rising, single point]
Cn1cccc1CC(=O)NNC(=O)Nc1ccccc1F | inconclusive: 93.3% | 
Cc1cc(C)cc(OCC(=O)OCC(=O)NC2CCCC2)c1 | inconclusive: -0.541% | 
CN(C)c1ccc(N/C=C/C(=O)c2ccccc2)cc1 | inconclusive: -40.2% | 
C/C(=N\NS(=O)(=O)c1ccc(C)cc1)c1ccc(C)s1 | inconclusive: -9.61% | 
Cc1[nH][nH]c(=O)c1C(c1ccc(Cl)cc1)c1c(C)[nH][nH]c1=O |  | inconclusive: 0.13 µM [activator, full curve, poor fit]
